For at least one compound, name, drawing or mass did not settle the structure. Marks after values point to notes of the source that are not given here.
Assays:
Format in all cases: cell-based
human whole blood = assay: P50 of human whole blood after incubation with compound; settings: compound 60 mM
Procedure: (§1) For the in vitro experiments, ITPP was dissolved in deionized water, pH was adjusted at pH 7 and, for incubation with whole blood, the osmolarity of the ITPP solutions was adjusted with glucose to 270-297 mOsM. Mixtures of hemoglobin and ITPP were measured with a HEMOX analyzer (PD Marketing, London) immediately after mixing. Red blood cells were incubated with ITPP for 1 hour at 37° C. Following incubation, the cells were washed 3 times with Bis-Tris-buffer (pH=7.0) and then used for P50 measurement.
ITPP-Ca4Na acts as a powerful effector of hemoglobin shifting the oxygen fixation curves to the right, with respect to the natural effector bisphosphoglycerate. […] In FIG. 6, hemoglobin is incubated (at concentrations up to 100 mM final) with ITPP Ca4Na, for 1 hour at 37° C. and measured by TCS-hemox analyzer for p50 shifts. In FIG. 7, whole human blood was incubated (at concentrations up to 120 mM final) with ITPP Ca4Na, for 1 hour 37° C. and measured by TCS-hemox analyzer for p50 shifts.

porcine whole blood = assay: P50 of porcine whole blood after incubation with compound; settings: compound 60 mM
Procedure: as §1

murine whole blood = assay: P50 of murine whole blood after incubation with compound
Procedure: as §1

| SMILES | P50 increase (%) + SD (human whole blood) | P50 increase (%) + SD (porcine whole blood) | P50 increase (%) + SD (murine whole blood; compound 4 mM) | P50 increase (%) + SD (murine whole blood; compound 60 mM) |
| --- | --- | --- | --- | --- |
| O=P1([O-])OP(=O)([O-])O[C@H]2[C@H](O1)[C@@H]1OP(=O)([O-])OP(=O)([O-])O[C@@H]1[C@H]1OP(=O)([O-])OP(=O)([O-])O[C@H]21.[Na+].[Na+].[Na+].[Na+].[Na+].[Na+] (racemic) [Compound 5, myo-inositol tripyrophosphate-sodium salt] | 39^a ± 5^ % | 40^a ± 3^ % | 29^b ± 3^ % | – |
| O=P1([O-])OP(=O)([O-])O[C@H]2[C@H](O1)[C@@H]1OP(=O)([O-])OP(=O)([O-])O[C@@H]1[C@H]1OP(=O)([O-])OP(=O)([O-])O[C@H]21.[Ca+2].[Ca+2].[Ca+2] (racemic) [Compound 15, myo-inositol tripyrophosphate-calcium salt] | – | – | – | 38^a ± 4^ % |

Source: patent US7745423B2, “Calcium/sodium salt of inositol tripyrophosphate as an allosteric effector of hemoglobin” (NormOxys, Inc, priority 2004, dated 2010)
